Some of these results come from one statement about several compounds together.
System: AML cell lines
Assay: apoptosis in AML cell lines, acridine orange/ethidium bromide
Format: cell-based, human
Conditions: HEL cells in culture
Procedure: Apoptosis Assay: Cells were treated for 24, 48 or 72 h with vehicle (DMSO) or inhibitors as indicated. Following staining with Acridine Orange and Ethidium Bromide (1:1 mix of 100 µg/ml), cells were visualized with a fluorescent microscope (Zeiss Axiovert 40 CFL) and counted. Percentage of apoptotic cells was determined from 200-300 cells counted in each group. The percentage of apoptotic cells was calculated as: % Apoptotic cells=(total number of cells with apoptotic nuclei/total number of cells counted)×100.

## CC(C)NCCCn1c(Sc2cc3c(cc2I)OCO3)nc2c(N)ncnc21 [PU-H71]
  cells committed to undergo apoptosis: 20-30%

Source: patent US12616759B2, “Uses of labeled HSP90 inhibitors” (Sloan-Kettering Institute for Cancer Research, priority 2011, dated 2026)
